Experimental data from the supplement of paper PMC10849652.
Some of the results follow. Residues, ends and D or L forms follow the SMILES beside them. *: point of attachment. Cbz = O=C(OCc1ccccc1)*

Chains of the proteins cited; added tags and fusions are not shown. Lines headed by an entry give the natural chain unless they say otherwise; changes in a name come on top.
UniProt O94887: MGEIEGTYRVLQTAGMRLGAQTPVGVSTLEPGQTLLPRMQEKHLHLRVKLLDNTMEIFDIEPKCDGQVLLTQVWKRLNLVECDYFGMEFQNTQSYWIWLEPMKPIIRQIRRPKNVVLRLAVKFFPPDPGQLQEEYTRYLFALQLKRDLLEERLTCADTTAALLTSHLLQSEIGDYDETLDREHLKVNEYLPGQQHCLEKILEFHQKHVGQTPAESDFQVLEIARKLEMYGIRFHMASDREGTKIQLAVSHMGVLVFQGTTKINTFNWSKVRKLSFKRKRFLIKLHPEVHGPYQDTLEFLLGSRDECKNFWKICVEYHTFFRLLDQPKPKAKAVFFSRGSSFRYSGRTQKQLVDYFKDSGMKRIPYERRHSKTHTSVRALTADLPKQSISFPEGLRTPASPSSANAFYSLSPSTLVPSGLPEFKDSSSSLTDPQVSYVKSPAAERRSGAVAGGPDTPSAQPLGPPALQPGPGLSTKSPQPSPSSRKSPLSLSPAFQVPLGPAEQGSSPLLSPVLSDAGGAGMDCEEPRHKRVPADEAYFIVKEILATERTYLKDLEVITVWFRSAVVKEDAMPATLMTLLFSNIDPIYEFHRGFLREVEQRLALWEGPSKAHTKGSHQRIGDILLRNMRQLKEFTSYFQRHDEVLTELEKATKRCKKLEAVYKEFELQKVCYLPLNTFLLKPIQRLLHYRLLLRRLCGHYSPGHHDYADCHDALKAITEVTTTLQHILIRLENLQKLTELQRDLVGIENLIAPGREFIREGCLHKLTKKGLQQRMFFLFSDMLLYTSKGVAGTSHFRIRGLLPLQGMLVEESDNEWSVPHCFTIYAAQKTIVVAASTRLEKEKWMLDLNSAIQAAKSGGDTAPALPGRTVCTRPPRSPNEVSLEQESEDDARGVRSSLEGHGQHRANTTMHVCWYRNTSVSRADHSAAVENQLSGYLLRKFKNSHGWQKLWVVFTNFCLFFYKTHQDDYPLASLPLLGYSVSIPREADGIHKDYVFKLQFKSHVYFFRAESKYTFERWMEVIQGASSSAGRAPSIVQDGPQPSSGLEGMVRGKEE
UniProt Q8N0W7: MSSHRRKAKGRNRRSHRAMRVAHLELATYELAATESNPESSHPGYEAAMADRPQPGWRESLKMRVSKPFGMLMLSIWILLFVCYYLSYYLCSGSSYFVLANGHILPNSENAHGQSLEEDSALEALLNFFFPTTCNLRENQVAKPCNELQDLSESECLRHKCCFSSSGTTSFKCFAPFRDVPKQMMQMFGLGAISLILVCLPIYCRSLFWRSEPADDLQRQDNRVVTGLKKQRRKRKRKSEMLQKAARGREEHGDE
UniProt Q06828: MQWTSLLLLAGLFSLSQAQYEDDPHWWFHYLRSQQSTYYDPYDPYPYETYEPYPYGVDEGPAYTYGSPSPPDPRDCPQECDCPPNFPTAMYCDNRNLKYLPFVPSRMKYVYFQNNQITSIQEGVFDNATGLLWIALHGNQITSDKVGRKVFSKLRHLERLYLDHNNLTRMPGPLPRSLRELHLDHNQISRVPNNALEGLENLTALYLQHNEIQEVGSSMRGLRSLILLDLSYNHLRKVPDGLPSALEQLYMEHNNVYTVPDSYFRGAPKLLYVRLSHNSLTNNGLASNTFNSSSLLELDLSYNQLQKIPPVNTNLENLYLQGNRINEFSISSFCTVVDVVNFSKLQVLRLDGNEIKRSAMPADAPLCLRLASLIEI
UniProt Q8TF40: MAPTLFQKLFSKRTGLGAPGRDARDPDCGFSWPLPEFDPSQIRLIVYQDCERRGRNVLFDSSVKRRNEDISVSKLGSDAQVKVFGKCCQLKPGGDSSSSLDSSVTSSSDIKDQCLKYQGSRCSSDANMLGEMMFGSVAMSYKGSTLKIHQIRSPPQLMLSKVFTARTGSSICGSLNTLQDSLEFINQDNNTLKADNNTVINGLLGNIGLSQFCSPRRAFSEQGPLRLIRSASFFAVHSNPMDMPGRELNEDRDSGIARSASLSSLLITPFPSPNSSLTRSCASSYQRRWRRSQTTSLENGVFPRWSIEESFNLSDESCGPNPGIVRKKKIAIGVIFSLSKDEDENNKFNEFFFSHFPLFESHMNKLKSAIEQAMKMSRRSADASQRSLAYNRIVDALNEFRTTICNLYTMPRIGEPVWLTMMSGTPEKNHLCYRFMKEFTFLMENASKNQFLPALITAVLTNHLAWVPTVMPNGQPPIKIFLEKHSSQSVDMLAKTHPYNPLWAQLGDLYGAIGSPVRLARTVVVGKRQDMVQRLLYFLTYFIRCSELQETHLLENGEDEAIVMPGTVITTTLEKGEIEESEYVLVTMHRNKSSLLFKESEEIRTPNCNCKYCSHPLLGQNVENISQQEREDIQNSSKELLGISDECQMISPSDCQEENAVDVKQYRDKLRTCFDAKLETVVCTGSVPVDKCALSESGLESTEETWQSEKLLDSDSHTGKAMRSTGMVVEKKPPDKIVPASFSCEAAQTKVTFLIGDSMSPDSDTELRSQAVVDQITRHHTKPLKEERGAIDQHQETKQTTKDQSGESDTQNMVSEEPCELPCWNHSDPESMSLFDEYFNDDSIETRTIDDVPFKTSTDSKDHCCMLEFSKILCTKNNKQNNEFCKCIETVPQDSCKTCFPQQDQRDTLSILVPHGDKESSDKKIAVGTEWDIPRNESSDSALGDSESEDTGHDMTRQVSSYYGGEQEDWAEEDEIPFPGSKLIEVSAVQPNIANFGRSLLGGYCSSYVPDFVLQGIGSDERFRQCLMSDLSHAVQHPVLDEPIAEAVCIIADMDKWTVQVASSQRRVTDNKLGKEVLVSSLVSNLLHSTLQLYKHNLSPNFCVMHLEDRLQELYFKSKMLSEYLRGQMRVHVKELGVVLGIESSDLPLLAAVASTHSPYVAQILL
UniProt Q9Y324: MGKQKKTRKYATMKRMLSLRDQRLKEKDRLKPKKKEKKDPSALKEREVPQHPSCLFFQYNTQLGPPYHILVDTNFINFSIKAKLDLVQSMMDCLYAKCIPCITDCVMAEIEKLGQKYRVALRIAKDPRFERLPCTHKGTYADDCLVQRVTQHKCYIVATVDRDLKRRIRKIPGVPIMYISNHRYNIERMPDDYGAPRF
UniProt Q96SL8: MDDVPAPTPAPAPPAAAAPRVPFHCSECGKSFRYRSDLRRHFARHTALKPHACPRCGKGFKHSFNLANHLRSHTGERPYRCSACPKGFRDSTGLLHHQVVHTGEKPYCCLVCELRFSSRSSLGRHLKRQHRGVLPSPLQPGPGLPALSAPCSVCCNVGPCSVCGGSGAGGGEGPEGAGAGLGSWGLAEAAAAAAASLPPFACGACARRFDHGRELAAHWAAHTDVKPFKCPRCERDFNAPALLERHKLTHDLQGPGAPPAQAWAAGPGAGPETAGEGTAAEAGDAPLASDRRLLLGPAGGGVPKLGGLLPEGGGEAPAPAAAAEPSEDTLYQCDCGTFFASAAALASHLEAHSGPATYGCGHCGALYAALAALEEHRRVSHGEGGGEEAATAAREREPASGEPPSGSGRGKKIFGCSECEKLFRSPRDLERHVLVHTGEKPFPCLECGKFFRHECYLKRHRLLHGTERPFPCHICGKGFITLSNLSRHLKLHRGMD
UniProt O95466, whole entry, looked up: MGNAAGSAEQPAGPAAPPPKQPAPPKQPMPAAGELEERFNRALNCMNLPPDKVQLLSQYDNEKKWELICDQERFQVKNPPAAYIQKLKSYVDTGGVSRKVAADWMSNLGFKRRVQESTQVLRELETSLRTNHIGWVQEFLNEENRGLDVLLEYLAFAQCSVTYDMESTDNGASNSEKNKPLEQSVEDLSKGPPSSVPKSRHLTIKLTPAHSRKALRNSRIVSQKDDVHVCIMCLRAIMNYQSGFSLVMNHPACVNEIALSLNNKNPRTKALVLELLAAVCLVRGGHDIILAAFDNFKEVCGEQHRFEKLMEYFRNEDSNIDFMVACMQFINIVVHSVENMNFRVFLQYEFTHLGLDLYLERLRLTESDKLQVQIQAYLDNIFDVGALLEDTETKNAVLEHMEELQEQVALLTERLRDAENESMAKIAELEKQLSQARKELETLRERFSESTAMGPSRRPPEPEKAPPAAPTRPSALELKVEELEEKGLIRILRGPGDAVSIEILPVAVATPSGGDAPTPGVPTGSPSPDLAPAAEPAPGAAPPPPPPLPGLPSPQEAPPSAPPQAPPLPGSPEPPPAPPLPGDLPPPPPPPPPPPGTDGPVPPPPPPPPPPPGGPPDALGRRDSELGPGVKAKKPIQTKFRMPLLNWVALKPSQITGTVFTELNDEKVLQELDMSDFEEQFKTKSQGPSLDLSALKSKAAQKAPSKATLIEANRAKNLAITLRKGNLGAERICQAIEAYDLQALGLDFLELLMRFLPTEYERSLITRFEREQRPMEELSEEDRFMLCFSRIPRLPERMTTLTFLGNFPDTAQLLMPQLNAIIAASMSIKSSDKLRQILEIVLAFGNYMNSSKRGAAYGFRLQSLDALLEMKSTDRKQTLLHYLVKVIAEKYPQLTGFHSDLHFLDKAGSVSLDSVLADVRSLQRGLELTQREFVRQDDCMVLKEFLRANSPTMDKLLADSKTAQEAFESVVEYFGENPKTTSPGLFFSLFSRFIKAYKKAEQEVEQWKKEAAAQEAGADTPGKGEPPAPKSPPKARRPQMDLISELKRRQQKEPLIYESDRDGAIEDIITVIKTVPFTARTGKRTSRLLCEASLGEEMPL
UniProt Q96IV6: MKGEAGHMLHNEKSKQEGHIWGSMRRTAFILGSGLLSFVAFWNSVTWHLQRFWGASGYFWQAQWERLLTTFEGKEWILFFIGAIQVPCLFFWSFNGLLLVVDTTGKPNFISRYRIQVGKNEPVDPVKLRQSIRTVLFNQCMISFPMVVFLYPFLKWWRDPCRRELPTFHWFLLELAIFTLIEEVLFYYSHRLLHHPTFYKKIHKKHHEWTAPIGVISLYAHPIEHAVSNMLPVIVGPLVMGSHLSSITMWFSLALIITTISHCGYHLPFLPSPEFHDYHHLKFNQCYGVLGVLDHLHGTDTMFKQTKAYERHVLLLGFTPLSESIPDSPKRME
UniProt Q8N6M3: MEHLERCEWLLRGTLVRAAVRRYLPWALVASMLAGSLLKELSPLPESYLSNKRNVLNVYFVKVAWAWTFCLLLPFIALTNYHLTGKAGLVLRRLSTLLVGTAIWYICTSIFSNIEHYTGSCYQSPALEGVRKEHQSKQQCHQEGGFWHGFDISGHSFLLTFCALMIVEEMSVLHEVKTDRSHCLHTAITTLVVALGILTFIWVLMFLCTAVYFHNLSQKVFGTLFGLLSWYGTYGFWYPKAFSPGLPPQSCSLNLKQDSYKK
UniProt Q9UKA2: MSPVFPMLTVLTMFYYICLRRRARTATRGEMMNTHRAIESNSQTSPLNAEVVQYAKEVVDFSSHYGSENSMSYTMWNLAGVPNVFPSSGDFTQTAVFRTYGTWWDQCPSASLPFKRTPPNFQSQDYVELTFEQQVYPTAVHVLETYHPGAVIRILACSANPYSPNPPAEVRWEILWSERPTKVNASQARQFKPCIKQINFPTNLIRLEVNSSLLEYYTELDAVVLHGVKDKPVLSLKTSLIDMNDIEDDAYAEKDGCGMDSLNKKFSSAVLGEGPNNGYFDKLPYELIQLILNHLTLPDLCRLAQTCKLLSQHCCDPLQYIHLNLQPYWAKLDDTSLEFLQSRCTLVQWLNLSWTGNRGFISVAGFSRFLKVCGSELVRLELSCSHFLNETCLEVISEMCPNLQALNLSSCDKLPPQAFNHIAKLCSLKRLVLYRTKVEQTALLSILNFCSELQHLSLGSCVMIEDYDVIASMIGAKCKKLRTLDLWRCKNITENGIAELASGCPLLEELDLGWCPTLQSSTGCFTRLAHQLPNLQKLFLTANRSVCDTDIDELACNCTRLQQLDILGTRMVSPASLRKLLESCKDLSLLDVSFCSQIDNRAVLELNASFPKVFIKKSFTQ
UniProt Q96RU3: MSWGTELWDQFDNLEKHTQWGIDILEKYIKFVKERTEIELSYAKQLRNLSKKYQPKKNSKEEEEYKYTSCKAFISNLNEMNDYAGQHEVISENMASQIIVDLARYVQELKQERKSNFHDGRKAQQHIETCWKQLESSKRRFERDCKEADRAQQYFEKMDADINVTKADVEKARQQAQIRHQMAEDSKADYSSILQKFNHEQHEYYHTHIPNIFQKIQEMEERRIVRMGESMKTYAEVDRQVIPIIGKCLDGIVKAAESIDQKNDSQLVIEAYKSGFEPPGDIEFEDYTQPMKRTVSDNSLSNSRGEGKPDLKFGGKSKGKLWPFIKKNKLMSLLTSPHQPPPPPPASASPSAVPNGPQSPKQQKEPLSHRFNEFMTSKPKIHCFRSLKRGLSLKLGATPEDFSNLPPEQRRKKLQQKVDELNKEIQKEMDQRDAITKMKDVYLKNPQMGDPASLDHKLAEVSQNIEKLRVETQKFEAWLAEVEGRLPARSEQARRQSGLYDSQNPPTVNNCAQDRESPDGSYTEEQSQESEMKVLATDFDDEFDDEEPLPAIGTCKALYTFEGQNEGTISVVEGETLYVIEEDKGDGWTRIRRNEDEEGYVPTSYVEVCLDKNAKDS

Key:
Assay in all cases: log2 fold change, soluble protein after heating vs DMSO (PISA); higher = thermal stabilisation; K562 cells, 10 uM, 30 min; active = over 0.2 and 3.5 SD of the protein, either way, in both replicates (recomputed)
[1] = compound: C/C(=N\NC(=O)C1=CC(=CC=C1)S(=O)(=O)N2CCOCC2)/C3=C(C=CC(=C3)Cl)O
Outline: (§1)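 Thermal stability values are relative to control samples and come from duplicates. They are expressed as log2 fold changes. For measurement, K562 cells (2×10^6 cells/mL) received 10 μM compound for 30 min, and aliquots were heated for 3 min over 48°C-58°C, pooled, and extracted at 4°C in PBS with 0.5% NP-40. Soluble protein, the supernatant after 21,000xg for 90 min, was quantified by TMTpro 16plex LC-MS/MS with equalised channel sums.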

[2] = compound: C1=CC2=C(C=CC(=C2)/C=C\3/C(=O)NC(=NCC4=CC=CS4)S3)N=C1
Outline: as §1

[3] = compound: C1=CC2=NC=CN=C2C=C1/C=C/3\C(=O)NC(=O)S3
Outline: as §1

[4] = compound: C1=CC=C(C=C1)C2=NC(=C(N2)C3=CC=NC=C3)C4=CC(=C(C=C4)Cl)O
Outline: as §1

[5] = compound: C1=CC=C2C(=C1)C3=NNC4=CC=CC(=C43)C2=O
Outline: as §1

IRAK-1-4 Inhibitor I = compound: C1COCCN1CCN2C3=CC=CC=C3N=C2NC(=O)C4=CC(=CC=C4)[N+](=O)[O-] [IRAK-1-4 Inhibitor I]
Outline: as §1

ibrutinib = compound: C=CC(=O)N1CCC[C@@H](n2nc(-c3ccc(Oc4ccccc4)cc3)c3c(N)ncnc32)C1 [ibrutinib]
Outline: as §1

[6] = compound: CC(=O)c1cnc2ccc(-c3cc(Cl)c(O)c(Cl)c3)nc2c1N[C@H]1CC[C@H](CN(C)C)CC1
Outline: as §1

ralimetinib = compound: CC(C)(C)Cn1c(N)nc2ccc(-c3[nH]c(C(C)(C)C)nc3-c3ccc(F)cc3)nc21 [ralimetinib]
Outline: as §1

[7] = compound: CC(C)C[C@@H](C=O)NC(=O)[C@H](CC(C)C)NC(=O)[C@H](CC(C)C)NC(=O)OCc1ccccc1
Outline: as §1

pinometostat = compound: CC(C)N(C[C@H]1O[C@@H](n2cnc3c(N)ncnc32)[C@H](O)[C@@H]1O)[C@H]1C[C@@H](CCc2nc3cc(C(C)(C)C)ccc3[nH]2)C1 [pinometostat]
Outline: as §1

[8] = compound: CC1=C(C(CC(=O)N1)C2=CC=C(C=C2)C(F)(F)F)C(=O)NC3=C(C=C4C(=C3)C=NN4)F
Outline: as §1

[9] = compound: C1=CC(=C(C=C1Cl)C2=NC3=NC=CN=C3C(=N2)NC4=CC=NC=C4)F
Outline: as §1

[10] = compound: CC(C)(O)CC(=O)NCCn1ccc2ncnc(Nc3ccc(Oc4cccc(C(F)(F)F)c4)c(Cl)c3)c21
Outline: as §1

erlotinib = compound: C#Cc1cccc(Nc2ncnc3cc(OCCOC)c(OCCOC)cc23)c1 [erlotinib]
Outline: as §1

[11] = compound: C1=CC(=CC=C1C2=NC3=C(N2)C=C(C=C3)C(=O)N)OC4=CC=C(C=C4)Cl
Outline: as §1

[12] = compound: CC(C)C1=C2N=C(C=C(N2N=C1)NCC3=CC=CC=C3)NCCCCCCN
Outline: as §1

[13] = compound: C1CCN(C1)C(=O)NC2=CC=CC(=C2)NC3=NC=C(C(=N3)NCCC4=CN=CN4)Br
Outline: as §1

[14] = compound: C1CN(CCC1(CC2=CC=C(C=C2)Cl)N)C3=NC=NC4=C3C=CN4
Outline: as §1

[15] = compound: CC1=C(C2=C(C=C1)C(=O)C3=CC=CC=C3N2CCCN)C
Outline: as §1

Measured: log2 fold change

FEZ2 isoform 2 (UniProt Q9UHY8)
inactive: [1] -0.073 | [2] 0.049 | [3] 0.176 | [4] 0.056 | [5] 0.049 | IRAK-1-4 Inhibitor I 0.003 | ibrutinib -0.054 | [6] -0.064 | ralimetinib 0.094 | [7] 0.015 | pinometostat -0.035 | [8] -0.003

FBXO33 (UniProt Q7Z6M2)
inactive: [9] 0.048 | [3] 0.051 | ibrutinib -0.184 | [10] -0.048

FAM53B (UniProt Q14153)
inactive: erlotinib 0.03 | [9] 0.002 | [11] -0.089 | [4] -0.05 | IRAK-1-4 Inhibitor I 0.037 | ralimetinib 0.023 | [10] -0.007 | [12] -0.003 | [7] 0.007 | pinometostat 0.015

FARP2 (UniProt O94887)
inactive: [1] -0.004 | [2] 0.111 | [5] 0.036 | [13] 0.18 | [14] 0.019 | [6] -0.059 | [15] 0.041

FBF1 isoform 6 (UniProt Q8TES7)
inactive: [1] -0.068 | [2] 0.076 | [5] 0.095 | IRAK-1-4 Inhibitor I -0.054 | [6] -0.052 | pinometostat 0.138 | [8] -0.093

FAT1 (UniProt Q14517)
inactive: erlotinib -0.06 | [9] -0.062 | [11] 0.161 | [3] -0.08 | [4] 0.045 | [13] -0.123 | [14] 0.066 | IRAK-1-4 Inhibitor I 0.028 | ibrutinib 0.151 | [10] 0.01 | [12] 0.162 | [7] 0.683 | pinometostat -0.095 | [15] 0.091
active: ralimetinib -0.448

FBXO11 isoform 5 (UniProt Q86XK2)
inactive: erlotinib 0 | [9] -0.19 | [11] 0.261 | [13] 0.052 | [14] -0.03 | [10] 0.053 | [12] -0.317 | [15] -0.246

FMR1NB (UniProt Q8N0W7)
inactive: [1] -0.069 | [9] -0.3 | [2] 0.031 | [5] -0.095 | [6] -0.075 | [10] 0.278

FMOD (UniProt Q06828)
inactive: [1] 0.017 | [2] 0.202 | [5] -0.064 | [6] 0.006

FGG (UniProt P02679)
inactive: [4] -0.05 | ralimetinib -0.048 | [7] 0.231

FAM53C (UniProt Q9NYF3)
inactive: [4] -0.018 | [13] -0.084 | [14] -0.274 | ralimetinib 0.083 | [7] 0.136 | [8] -0.113 | [15] -0.207

FANCL isoform 2 (UniProt Q9NW38)
inactive: [1] 0.077 | [2] 0.216 | [5] -0.089 | [6] -0.284

FAT4 (UniProt Q6V0I7)
inactive: [1] -0.057 | [2] 0.142 | [4] -0.292 | [5] -0.055 | [13] 0.068 | [14] 0.033 | [6] 0.002 | ralimetinib -0.295 | [7] 0.291 | [8] 0.141 | [15] -0.383

FNIP1 (UniProt Q8TF40)
inactive: erlotinib 0.06 | [9] 0.097 | [11] -0.118 | [3] 0.014 | [4] -0.096 | [13] 0.073 | [14] -0.07 | ibrutinib 0.233 | ralimetinib -0.054 | [10] 0.114 | [12] 0.066 | [7] -0.116 | [15] -0.042

FERMT2 isoform 3 (UniProt Q96AC1)
inactive: erlotinib -0.215 | [9] 0.176 | [11] 0.052 | [3] 0.051 | [4] 0.008 | [13] -0.158 | [14] 0.061 | IRAK-1-4 Inhibitor I 0.36 | ibrutinib 0.028 | ralimetinib -0.06 | [10] 0.075 | [12] -0.036 | [7] -0.002 | pinometostat 0.07 | [8] 0.061 | [15] 0.11

Reprinted from the entries so far (2 entries):
FNIP1 (UniProt Q8TF40)
inactive: erlotinib 0.06 | [9] 0.097 | [11] -0.118 | [3] 0.014 | [4] -0.096 | [13] 0.073 | [14] -0.07 | ibrutinib 0.233 | ralimetinib -0.054 | [10] 0.114 | [12] 0.066 | [7] -0.116 | [15] -0.042

FERMT2 isoform 3 (UniProt Q96AC1)
inactive: erlotinib -0.215 | [9] 0.176 | [11] 0.052 | [3] 0.051 | [4] 0.008 | [13] -0.158 | [14] 0.061 | IRAK-1-4 Inhibitor I 0.36 | ibrutinib 0.028 | ralimetinib -0.06 | [10] 0.075 | [12] -0.036 | [7] -0.002 | pinometostat 0.07 | [8] 0.061 | [15] 0.11

Further results:

FHAD1 isoform 3 (UniProt B1AJZ9)
inactive: [1] -0.176 | [2] 0.245 | [3] 0.153 | [4] 0.196 | [5] -0.019 | [13] 0.151 | [14] 0.135 | IRAK-1-4 Inhibitor I 0.092 | ibrutinib 0.266 | [6] -0.092 | ralimetinib 0.069 | [7] -0.029 | pinometostat -0.147 | [15] -0.138

FBRS (UniProt J3KNZ9)
inactive: [1] 0.026 | [9] -0.098 | [2] -0.101 | [5] 0.178 | IRAK-1-4 Inhibitor I 0.055 | [6] -0.207 | [10] 0.161 | pinometostat 0.235 | [8] 0.052

FCF1 (UniProt Q9Y324)
inactive: [9] -0.392 | [4] -0.075 | [13] 0.034 | [14] -0.138 | IRAK-1-4 Inhibitor I -0.083 | ralimetinib 0.223 | [10] 0.032 | [7] 0.074 | pinometostat 0.334
active: [15] -1.04

FIZ1 (UniProt Q96SL8)
inactive: [9] -0.272 | IRAK-1-4 Inhibitor I -0.14 | [10] 0.017 | pinometostat 0.123

FAM98C (UniProt Q17RN3)
inactive: [1] -0.078 | [2] -0.15 | [5] 0.103 | [6] 0.194

FNDC3A (UniProt Q9Y2H6)
inactive: [13] 0.182 | [14] 0.146 | [15] 0.021

FAT3 isoform 1 (UniProt Q8TDW7)
inactive: erlotinib -0.004 | [9] -0.039 | [11] -0.026 | [3] -0.104 | [4] 0.03 | IRAK-1-4 Inhibitor I -0.275 | ibrutinib 0.495 | ralimetinib 0.22 | [10] 0.057 | [12] 0.18 | [7] 0.193 | pinometostat 0.062 | [8] -0.085

FIG4 (UniProt Q92562)
inactive: erlotinib -0.073 | [11] -0.068 | [12] -0.084

FMNL1 isoform 3 (UniProt O95466)
inactive: [1] -0.01 | [9] -0.185 | [2] 0.016 | [3] -0.186 | [5] -0.112 | ibrutinib 0.114 | [6] -0.197 | [10] 0.341

FAXDC2 (UniProt Q96IV6)
inactive: [3] 0.064 | IRAK-1-4 Inhibitor I -0.005 | ibrutinib -0.008 | pinometostat -0.07 | [8] 0.093

FITM2 (UniProt Q8N6M3)
inactive: erlotinib -0.016 | [11] 0.09 | [3] -0.011 | ibrutinib 0.118 | [12] -0.232 | [8] -0.038

FBXL4 (UniProt Q9UKA2)
inactive: [9] -0.513 | [10] -0.107

FBXL8 (UniProt Q96CD0)
inactive: erlotinib -0.049 | [9] 0.335 | [11] -0.107 | [3] -0.11 | [13] -0.031 | [14] -0.051 | ibrutinib 0.133 | [10] 0.1 | [12] 0.05 | [15] 0.002

FBXO9 (UniProt Q9UK97)
inactive: erlotinib -0.017 | [11] 0.137 | [3] -0.022 | [4] 0.03 | [13] -0.098 | [14] -0.037 | IRAK-1-4 Inhibitor I -0.034 | ibrutinib -0.119 | ralimetinib 0.137 | [12] -0.101 | [7] 0.088 | pinometostat 0.038 | [15] 0.137

FNBP1 (UniProt Q96RU3)
inactive: [1] 0.103 | [2] 0.046 | [5] -0.118 | [13] -0.378 | [14] 0.064 | [6] -0.051 | [15] -0.22
